Data as given in PubChem BioAssay AID602196 (INSERM, 2012)
Shown is one part, drawn at random, of about 23,000 reagents tested. 455 of them (2%) count as active. 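Active includes both protection and sensitisation; some change values fall well beyond the stated -50 to +50 range.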 Not all columns of the deposit are shown. Not given: the amount of reagent.

Aim: 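Knock-downs that protect lung cancer cells from cisplatin or sensitise them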
Cells: human A549 lung cancer cells
Knock-down reagent: siRNA pair against human genes
Time to read-out: 48 h transfection before cisplatin; time from cisplatin to read-out not stated
Treatment: cisplatin at a dose killing half of control-siRNA cells; exact dose and duration not given
Measured: 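Shift in cisplatin death relative to control siRNA, from -50 (all cells die) to +50 (no cells die); siRNAs harmful on their own scored 0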
Scale: two-siRNA summed score (-2 to +2): higher = both siRNAs protect from cisplatin killing; -2 means both sensitise; mean protection from cisplatin (shift in death): higher = protection from cisplatin killing
Active means: 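siRNAs harmful alone (LDH or WST-1) get 0; others get +1 for less and -1 for more cisplatin killing; genes are active when the two siRNAs give the same sign, summing to ±2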
Calls: active = both siRNAs shift cisplatin killing the same way; inactive = no consistent shift, or siRNA harmful alone

FOXD4L4
- two-siRNA summed score (-2 to +2): -1
- mean protection from cisplatin (shift in death) (%): -5.6
- outcome: inactive

LOC401236
- two-siRNA summed score (-2 to +2): 0
- mean protection from cisplatin (shift in death) (%): 12.4
- outcome: inactive

GLP2R
- two-siRNA summed score (-2 to +2): -1
- mean protection from cisplatin (shift in death) (%): -10
- outcome: inactive

FSHR
- two-siRNA summed score (-2 to +2): 0
- mean protection from cisplatin (shift in death) (%): 5.2
- outcome: inactive

LOC440312
- two-siRNA summed score (-2 to +2): 0
- mean protection from cisplatin (shift in death) (%): -0.1
- outcome: inactive

FCHO1
- two-siRNA summed score (-2 to +2): 0
- mean protection from cisplatin (shift in death) (%): 0.4
- outcome: inactive

UBE2L6
- two-siRNA summed score (-2 to +2): -1
- mean protection from cisplatin (shift in death) (%): -11.8
- outcome: inactive

SPATA8
- two-siRNA summed score (-2 to +2): 0
- mean protection from cisplatin (shift in death) (%): 24.7
- outcome: inactive

KLRA1P
- two-siRNA summed score (-2 to +2): 0
- mean protection from cisplatin (shift in death) (%): 5.7
- outcome: inactive

SELENOT
- two-siRNA summed score (-2 to +2): -1
- mean protection from cisplatin (shift in death) (%): -6
- outcome: inactive

PAPPA
- two-siRNA summed score (-2 to +2): 0
- mean protection from cisplatin (shift in death) (%): -12
- outcome: inactive

FKBP9
- two-siRNA summed score (-2 to +2): 0
- mean protection from cisplatin (shift in death) (%): 9.8
- outcome: inactive

MTCL1
- two-siRNA summed score (-2 to +2): 0
- mean protection from cisplatin (shift in death) (%): 0.9
- outcome: inactive

DIPK2B
- two-siRNA summed score (-2 to +2): 1
- mean protection from cisplatin (shift in death) (%): 13.5
- outcome: inactive

DIO1
- two-siRNA summed score (-2 to +2): 0
- mean protection from cisplatin (shift in death) (%): -1.7
- outcome: inactive

SNX21
- two-siRNA summed score (-2 to +2): 1
- mean protection from cisplatin (shift in death) (%): 17.8
- outcome: inactive

EXT2
- two-siRNA summed score (-2 to +2): 0
- mean protection from cisplatin (shift in death) (%): -6.8
- outcome: inactive

PNMA5
- two-siRNA summed score (-2 to +2): 0
- mean protection from cisplatin (shift in death) (%): -5.6
- outcome: inactive

SERHL
- two-siRNA summed score (-2 to +2): 0
- mean protection from cisplatin (shift in death) (%): 9.6
- outcome: inactive

TFE3
- two-siRNA summed score (-2 to +2): 0
- mean protection from cisplatin (shift in death) (%): 11.4
- outcome: inactive

TP53
- two-siRNA summed score (-2 to +2): 0
- mean protection from cisplatin (shift in death) (%): 3
- outcome: inactive

LOC402157
- two-siRNA summed score (-2 to +2): 0
- mean protection from cisplatin (shift in death) (%): -4.4
- outcome: inactive

RCVRN
- two-siRNA summed score (-2 to +2): -1
- mean protection from cisplatin (shift in death) (%): -10.7
- outcome: inactive

LOC440823
- two-siRNA summed score (-2 to +2): 1
- mean protection from cisplatin (shift in death) (%): 15.3
- outcome: inactive

ZFP69
- two-siRNA summed score (-2 to +2): 1
- mean protection from cisplatin (shift in death) (%): 10.3
- outcome: inactive

LOC442213
- two-siRNA summed score (-2 to +2): 0
- mean protection from cisplatin (shift in death) (%): 6.5
- outcome: inactive

SLC8A3
- two-siRNA summed score (-2 to +2): 1
- mean protection from cisplatin (shift in death) (%): 14
- outcome: inactive

ACKR4
- two-siRNA summed score (-2 to +2): 0
- mean protection from cisplatin (shift in death) (%): 2.9
- outcome: inactive

LOC401893
- two-siRNA summed score (-2 to +2): -1
- mean protection from cisplatin (shift in death) (%): -7.5
- outcome: inactive

PIK3CB
- two-siRNA summed score (-2 to +2): 0
- mean protection from cisplatin (shift in death) (%): -12.6
- outcome: inactive

C8orf44
- two-siRNA summed score (-2 to +2): 0
- mean protection from cisplatin (shift in death) (%): 17.6
- outcome: inactive

LOC441626
- two-siRNA summed score (-2 to +2): 0
- mean protection from cisplatin (shift in death) (%): -4
- outcome: inactive

PSMA5
- two-siRNA summed score (-2 to +2): 1
- mean protection from cisplatin (shift in death) (%): 7.4
- outcome: inactive

LOC150207
- two-siRNA summed score (-2 to +2): 0
- mean protection from cisplatin (shift in death) (%): -1.2
- outcome: inactive

PAPOLB
- two-siRNA summed score (-2 to +2): 0
- mean protection from cisplatin (shift in death) (%): -6.4
- outcome: inactive

PTPN14
- two-siRNA summed score (-2 to +2): 1
- mean protection from cisplatin (shift in death) (%): 4.7
- outcome: inactive

DEPDC7
- two-siRNA summed score (-2 to +2): 0
- mean protection from cisplatin (shift in death) (%): 9.4
- outcome: inactive

LOC440717
- two-siRNA summed score (-2 to +2): 0
- mean protection from cisplatin (shift in death) (%): -0.7
- outcome: inactive

RANBP3
- two-siRNA summed score (-2 to +2): 0
- mean protection from cisplatin (shift in death) (%): 4.4
- outcome: inactive

ASCL2
- two-siRNA summed score (-2 to +2): 2
- mean protection from cisplatin (shift in death) (%): 30.4
- outcome: active

Records listed above marked active (1):
ASCL2
- two-siRNA summed score (-2 to +2): 2
- mean protection from cisplatin (shift in death) (%): 30.4
- outcome: active
